Measurements: US9393221B2, “Methods and compounds for reducing intracellular lipid storage” (THE GENERAL HOSPITAL CORPORATION, priority 2011, dated 2016)
Like-named read-outs stand apart in the source and are kept apart here. At least one structure is not confirmed: it was looked up by name or label, or the drawing left a doubt.

Tested on: ATGL-KO iPSCs
Assay: High throughput iPSC chemical screening, Oil Red O (ORO) lipid accumulation; also: test concentration or dose not given here
Assay type: cell-based, mouse
[1] = normalized ORO level vs DMSO-treated cells, compound present during 7 days differentiation, 96-well, negative = decrease in lipid accumulation

Row | SMILES | Z-score [1] | Z-score
1 | CC[C@H]1OC(=O)[C@H](C)[C@@H](O[C@H]2C[C@@](C)(OC)[C@@H](O)[C@H](C)O2)[C@H](C)[C@@H](O[C@@H]2O[C@H](C)C[C@H](N(C)C)[C@H]2O)[C@](C)(O)C[C@@H](C)[C@@H]2N[C@@H](COCCOC)O[C@H]([C@H]2C)[C@]1(C)O [Dirithromycin] | 1.54 | –
2 | CCC(=O)O[C@@H]1CC(=O)O[C@H](C)C/C=C/C=C/[C@H](O)[C@H](C)C[C@H](CC=O)[C@H](O[C@@H]2O[C@H](C)[C@@H](O[C@H]3C[C@@](C)(O)[C@@H](OC(=O)CC)[C@H](C)O3)[C@H](N(C)C)[C@H]2O)[C@H]1OC [Midecamycin] | 0.5514 | –
3 | NCCCCCC(=O)O [Aminocaproic acid] | – | 0.8
